We go through one sequence from paper PMC12806343.

Sequences of proteins named here, by UniProt entry; tags and fusion partners are left off. Residues count along the entry.
UniProt P02769, 25-607: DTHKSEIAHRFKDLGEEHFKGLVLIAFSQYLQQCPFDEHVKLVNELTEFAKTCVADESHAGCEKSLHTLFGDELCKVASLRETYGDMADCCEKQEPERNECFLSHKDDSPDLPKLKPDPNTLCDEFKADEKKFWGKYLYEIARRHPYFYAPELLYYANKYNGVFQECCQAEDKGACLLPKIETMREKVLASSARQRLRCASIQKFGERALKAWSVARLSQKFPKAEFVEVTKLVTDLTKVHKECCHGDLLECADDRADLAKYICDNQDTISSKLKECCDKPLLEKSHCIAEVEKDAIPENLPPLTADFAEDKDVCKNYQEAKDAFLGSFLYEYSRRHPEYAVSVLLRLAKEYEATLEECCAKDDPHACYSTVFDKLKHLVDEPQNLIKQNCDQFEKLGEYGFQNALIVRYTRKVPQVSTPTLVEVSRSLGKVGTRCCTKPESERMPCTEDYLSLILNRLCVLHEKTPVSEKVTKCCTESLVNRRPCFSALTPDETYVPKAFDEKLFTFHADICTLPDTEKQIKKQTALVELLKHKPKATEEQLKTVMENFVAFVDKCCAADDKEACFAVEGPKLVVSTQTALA

No signal at the amounts used counts as a negative. For some assays here: The exact form of at least one protein or probe is not confirmed.

Series [1] concerns the target bovine serum albumin (BSA) (Bos taurus) (UniProt P02769). Briefly: EMSA (TBE-PAGE). The conditions noted are these: 5' amine (NH2), binding buffer composition not given, commercial protein, folded or branched DNA. For orientation: In EMSA bound probe runs differently from free probe, usually more slowly.
The next series has as its system myoglobin. Briefly: EMSA (TBE-PAGE). The conditions noted are these: 5' amine (NH2), binding buffer composition not given, commercial protein, folded or branched DNA.

Regarding “GTACCTGCTCTCCGCGCGAAGCACGCCAGGGACT [Tr-Apt13]”, the binding result (in series [1]; in the series on myoglobin) was “no binding” throughout.
